Data source: PubChem BioAssay AID1259308 (NCATS, 2017)
Shown is one part, drawn at random, of about 59,000 reagents. About 1,510 of all reagents (2.6%) were called active. 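Calls use total luciferase alone and ignore viability, so some active siRNAs may act by altering cell number.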 Unmarked entries are inactive. The numbers tell different reagents against one gene apart. Further read-outs or replicates are left out here.

Aim: 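Genes whose loss raises luciferase production in HEK293 cells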 (primary screen)
System: human HEK293 embryonic kidney cells stably expressing firefly luciferase (HEK-CMV-Luc2-Hygro)
Knock-down reagent: single siRNA against human genes, 0.8 pmol siRNA per well
Time to read-out: 72 h
Measurement: 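Reporter luminescence and viable-cell signal on separate replicate plates, given as percent of non-targeting control and median/MAD z-scores, plus per-cell luciferase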
Direction: total luciferase, z-score and total luciferase, % of control: higher = more reporter protein produced; luciferase per cell, z-score: higher = more reporter output per viable cell
Active means: 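Active when the median/MAD z-score for overall luciferase is greater than 3; a gene was taken forward for validation with new siRNAs if at least two of its three siRNAs passed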
Meaning of the calls: active = raised luciferase; inactive = no rise

no.	gene knocked down	siRNA no.	total luciferase, z-score	total luciferase, % of control	luciferase per cell, z-score
1	GPRASP1	1	-0.877	64.4	-0.718
2	GPRASP1	2	0.748	96.8	1.15
3	GPRASP1	3	0.329	88.4	-0.818
4	RFPL4AL1	1	0.824	98.3	0.69
5	RFPL4AL1	2	-0.602	69.9	-0.568
6	RFPL4AL1	3	-0.443	73.1	-0.6
7	KRTCAP3	1	0.553	92.9	1.15
8	KRTCAP3	2	-0.113	79.6	0.175
9	KRTCAP3	3	-0.627	69.4	-0.0918
10	C5orf58	1	-0.878	64.4	0.192
11	C5orf58	2	0.416	90.2	0.208
12	C5orf58	3	-0.262	76.7	-0.787
13	IGBP1	1	-0.39	74.1	-0.896
14	IGBP1	2	-0.321	75.5	-0.34
15	IGBP1	3	-0.754	66.9	-1.06
16	ZNF28	1	-0.486	72.2	-0.503
17	ZNF28	2	0.0224	82.3	-0.485
18	ZNF28	3	0.202	85.9	0.546

The list goes on, starting with the last 4 of the part before.
no.	gene knocked down	siRNA no.	total luciferase, z-score	total luciferase, % of control	luciferase per cell, z-score
15	IGBP1	3	-0.754	66.9	-1.06
16	ZNF28	1	-0.486	72.2	-0.503
17	ZNF28	2	0.0224	82.3	-0.485
18	ZNF28	3	0.202	85.9	0.546
19	LDHAL6B	1	-0.41	73.7	-0.819
20	LDHAL6B	2	-0.791	66.2	-1.39
21	LDHAL6B	3	-1.85	45.2	-1.72
22	TNRC6C	1	0.523	92.3	-0.177
23	TNRC6C	2	1.55	113	1.5
24	TNRC6C	3	0.182	85.5	-0.683
25	CNTNAP3B	1	2.21	126	2.48
26	CNTNAP3B	2	3.29 (active)	147	2.97
27	CNTNAP3B	3	2.92	140	2.28
28	CNTNAP3B	4	-0.678	68.4	-0.249
29	CNTNAP3B	5	-0.408	73.8	0.174
30	CNTNAP3B	6	-1.18	58.5	-1.28
31	NKX3-1	1	0.0372	82.6	-0.366
32	NKX3-1	2	-0.232	77.3	0.28
33	NKX3-1	3	0.114	84.2	-0.378
34	PEX5L	1	-0.412	73.7	-0.312
35	PEX5L	2	2.22	126	1.84
36	PEX5L	3	0.344	88.7	0.0205
37	POLR1F	1	1.57	113	1.07
38	POLR1F	2	-2.05	41.1	-1.16
39	POLR1F	3	-0.426	73.4	0.348
